PubChem BioAssay AID1224830, NIAID – 2016

Test: 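Host factors that control LPS-induced TNF expression in human macrophages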 (primary screen)
System: human THP-1 monocytic leukaemia cells, TNF dual-luciferase reporter clone, PMA-differentiated to macrophage-like cells
Reagents: siRNA pool against human genes, 50 nM
Timing: LPS for 4 h, given about 3 days after siRNA transfection
Conditions: bacterial LPS (TLR4 ligand), 10 ng/ml
Measured: 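Ratio of firefly to renilla light, scaled to the plate median and expressed as a robust z-score per replicate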
Reading the numbers: TNF reporter robust z-score: higher = stronger TNF reporter response to LPS
Call rule: 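Each well counts as active if its z-score is over 2.8 or under -1.5; controls are left without a call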
Here is one part, drawn at random, of about 18,000 reagents tested. About 2,900 of all reagents (16%) were called active. 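Calls are made per well; low scores hint the gene aids the LPS response, high scores that it dampens it.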 Unmarked entries are inactive. Repeated entries: four replicate wells of each siRNA pool.

gene knocked down | TNF reporter robust z-score
QTRT2 (queuine tRNA-ribosyltransferase accessory subunit 2) | 0.77
QTRT2 (queuine tRNA-ribosyltransferase accessory subunit 2) | 2.12
QTRT2 (queuine tRNA-ribosyltransferase accessory subunit 2) | -0.48
QTRT2 (queuine tRNA-ribosyltransferase accessory subunit 2) | -0.34
TM6SF2 (transmembrane 6 superfamily member 2) | 1.04
TM6SF2 (transmembrane 6 superfamily member 2) | 1.43
TM6SF2 (transmembrane 6 superfamily member 2) | -0.22
TM6SF2 (transmembrane 6 superfamily member 2) | 0.85
C8G (complement C8 gamma chain) | 0.48
C8G (complement C8 gamma chain) | 1.82
C8G (complement C8 gamma chain) | 1.75
C8G (complement C8 gamma chain) | 2.43
PLXDC1 (plexin domain containing 1) | -1
PLXDC1 (plexin domain containing 1) | -1.78 (active)
PLXDC1 (plexin domain containing 1) | -1.87 (active)
PLXDC1 (plexin domain containing 1) | -1.58 (active)
TRIM61 (tripartite motif containing 61) | -0.34
TRIM61 (tripartite motif containing 61) | -1.9 (active)
TRIM61 (tripartite motif containing 61) | -1.34
HSD3B2 | -0.33
HSD3B2 | 0.14
HSD3B2 | -0.26
HSD3B2 | 0.28
DNAJC19 (DnaJ heat shock protein family (Hsp40) member C19) | 0
DNAJC19 (DnaJ heat shock protein family (Hsp40) member C19) | -0.64
DNAJC19 (DnaJ heat shock protein family (Hsp40) member C19) | 0.2
DNAJC19 (DnaJ heat shock protein family (Hsp40) member C19) | -0.09
WDR33 (WD repeat domain 33) | -0.51
WDR33 (WD repeat domain 33) | -0.61
WDR33 (WD repeat domain 33) | -1.59 (active)
WDR33 (WD repeat domain 33) | -0.07
FSCN3 (fascin actin-bundling protein 3) | -1.81 (active)
FSCN3 (fascin actin-bundling protein 3) | -1.44
FSCN3 (fascin actin-bundling protein 3) | -1.53 (active)
FSCN3 (fascin actin-bundling protein 3) | -0.85
BPIFA3 (BPI fold containing family A member 3) | 0.93
BPIFA3 (BPI fold containing family A member 3) | -0.45
BPIFA3 (BPI fold containing family A member 3) | 0.56
BPIFA3 (BPI fold containing family A member 3) | 0.21
RMC1 (regulator of MON1-CCZ1) | -0.28
RMC1 (regulator of MON1-CCZ1) | -0.21
RMC1 (regulator of MON1-CCZ1) | 0.03
RMC1 (regulator of MON1-CCZ1) | 0.62

The list goes on (2 carried over from the part before).
gene knocked down | TNF reporter robust z-score
RMC1 (regulator of MON1-CCZ1) | 0.03
RMC1 (regulator of MON1-CCZ1) | 0.62
NEUROD6 (neuronal differentiation 6) | -0.52
NEUROD6 (neuronal differentiation 6) | -0.58
NEUROD6 (neuronal differentiation 6) | -0.29
NEUROD6 (neuronal differentiation 6) | -0.6
ST6GAL2 (ST6 beta-galactoside alpha-2,6-sialyltransferase 2) | -0.82
ST6GAL2 (ST6 beta-galactoside alpha-2,6-sialyltransferase 2) | -0.2
ST6GAL2 (ST6 beta-galactoside alpha-2,6-sialyltransferase 2) | -0.06
ST6GAL2 (ST6 beta-galactoside alpha-2,6-sialyltransferase 2) | -0.27
PHYHIP (phytanoyl-CoA 2-hydroxylase interacting protein) | 0.37
PHYHIP (phytanoyl-CoA 2-hydroxylase interacting protein) | 0.57
PHYHIP (phytanoyl-CoA 2-hydroxylase interacting protein) | 0.2
PHYHIP (phytanoyl-CoA 2-hydroxylase interacting protein) | -0.07
OPALIN (oligodendrocytic myelin paranodal and inner loop protein) | 2.14
OPALIN (oligodendrocytic myelin paranodal and inner loop protein) | -0.32
OPALIN (oligodendrocytic myelin paranodal and inner loop protein) | -0.53
OPALIN (oligodendrocytic myelin paranodal and inner loop protein) | -0.93
C12orf43 (chromosome 12 open reading frame 43) | 0.09
C12orf43 (chromosome 12 open reading frame 43) | 0.66
C12orf43 (chromosome 12 open reading frame 43) | 1.68
C12orf43 (chromosome 12 open reading frame 43) | 0.97
BOD1L1 (biorientation of chromosomes in cell division 1 like 1) | 0.62
BOD1L1 (biorientation of chromosomes in cell division 1 like 1) | 1.87
BOD1L1 (biorientation of chromosomes in cell division 1 like 1) | 0.38
BOD1L1 (biorientation of chromosomes in cell division 1 like 1) | 0.93
PFKFB3 (6-phosphofructo-2-kinase/fructose-2,6-biphosphatase 3) | -0.07
PFKFB3 (6-phosphofructo-2-kinase/fructose-2,6-biphosphatase 3) | 0.06
PFKFB3 (6-phosphofructo-2-kinase/fructose-2,6-biphosphatase 3) | -0.96
PFKFB3 (6-phosphofructo-2-kinase/fructose-2,6-biphosphatase 3) | 0.23
DDX54 (DEAD-box helicase 54) | -0.06
DDX54 (DEAD-box helicase 54) | -0.3
DDX54 (DEAD-box helicase 54) | -0.6
DDX54 (DEAD-box helicase 54) | -0.34
CHL1 (cell adhesion molecule L1 like) | -0.43
CHL1 (cell adhesion molecule L1 like) | 0.28
CHL1 (cell adhesion molecule L1 like) | -0.46
CHL1 (cell adhesion molecule L1 like) | 0.71
SLC10A6 | 1.39
SLC10A6 | 2.14
SLC10A6 | 0.44
KCNV2 | 2.5
KCNV2 | 0.06
KCNV2 | 0.11
KCNV2 | -0.03
EMCN (endomucin) | -0.66
EMCN (endomucin) | -0.09
EMCN (endomucin) | 3.28 (active)
EMCN (endomucin) | 0.06
CEP43 (centrosomal protein 43) | 0.03
CEP43 (centrosomal protein 43) | 0.18
CEP43 (centrosomal protein 43) | 0.86
CEP43 (centrosomal protein 43) | 1.08
EIF2B4 (eukaryotic translation initiation factor 2B subunit delta) | -0.39
EIF2B4 (eukaryotic translation initiation factor 2B subunit delta) | -0.76
EIF2B4 (eukaryotic translation initiation factor 2B subunit delta) | -0.42
EIF2B4 (eukaryotic translation initiation factor 2B subunit delta) | -0.79
GABRR2 (gamma-aminobutyric acid type A receptor subunit rho2) | 0.31
GABRR2 (gamma-aminobutyric acid type A receptor subunit rho2) | 0.8
GABRR2 (gamma-aminobutyric acid type A receptor subunit rho2) | -0.74
GABRR2 (gamma-aminobutyric acid type A receptor subunit rho2) | -0.32
TRAPPC13 (trafficking protein particle complex subunit 13) | -1.1
TRAPPC13 (trafficking protein particle complex subunit 13) | -1.49
TRAPPC13 (trafficking protein particle complex subunit 13) | -1.01
TRAPPC13 (trafficking protein particle complex subunit 13) | -0.85
MEF2C (myocyte enhancer factor 2C) | -0.81
MEF2C (myocyte enhancer factor 2C) | -0.86
MEF2C (myocyte enhancer factor 2C) | -0.65
MEF2C (myocyte enhancer factor 2C) | 0.49
